Experimental data taken from PubChem BioAssay AID1347076 (National Center for Advancing Translational Sciences (NCATS), 2019).
Among all 400,000 compounds or so, about 13,000 (3.2%) were called active. The inconclusive results got no clear call from the source; some entries with a clear call stand among them for comparison. Calls follow the shape of the dose curve; as a rule, active = well fitted cell-killing curve with a large enough effect; inconclusive = small, poorly fitted or top-dose-only effect, or effect the other way; inactive = flat fitted curve, though single readings scatter. Where the call is inconclusive, the potency comes from a doubtful curve fit.

Test: qHTS assay for MDR1-selective chemotherapeutics: Primary screen using the drug-selected MDR subline cells KB-V1; also: nearly all actives have a fitted effect of over 60% in size
Conditions: KB-V1 MDR cells viability, CellTiter-Glo, 72 h; activity change, negative = cytotoxicity: at 46.1 µM (top of the series)
In short: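 Cytotoxicity toward P-gp-expressing KB-V1 cells was determined as loss of CellTiter-Glo luminescence after 72 h at 37 degrees C. Compounds were tested in quantitative HTS format across a concentration range, with curves fitted to normalized data.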
% is scaled to controls: 0 for no effect and ±100 for the full control effect; potency is read from the fitted curve at half-maximal effect.

Row | Compound | Potency | activity change, negative = cytotoxicity
1 | O=C(NCC1CCCO1)[C@@H]1CSC2c3ccccc3C(=O)N21 (some centres not stated) | inconclusive: 6.51 µM [rising, partial curve] | –
2 | Fc1ccccc1CN(CCN1CCOCC1)C(=S)Nc1ccccc1Cl | inconclusive: 16.4 µM [cytotoxic, single point] | –
3 | Cc1c(Br)cnn1C(C)C(=O)N1CCN(c2ccc(F)cc2)CC1 (configuration not stated) | inconclusive: 29.1 µM [cytotoxic, single point] | –
4 | COc1cc(CN(C(=O)c2ccco2)C2CCS(=O)(=O)C2)cc(OC)c1OC (configuration not stated) | – | inconclusive: 4.07%
5 | COC(=O)C1(C(=O)OC)c2ncccc2N(S(=O)(=O)c2ccc(C)cc2)C1CC(=O)c1ccccc1 (configuration not stated) | – | inactive: -14.6%
6 | CN1C(=O)CC(N2CCN(CCN=CC3=C(O)CC(C)(C)CC3=O)CC2)C1=O (configuration not stated) | inconclusive: 10.3 µM [rising, partial curve] | –
7 | COc1ccc(S(=O)(=O)Nc2ccc3c(c2)CCCN3S(=O)(=O)c2ccc(C)cc2)cc1F | – | inactive: -17.7%
8 | CCOc1ccc(S(=O)(=O)Nc2cc(OC)ccc2OC)cc1 | active: 0.411 µM | –
9 | COc1cccc(CNC(=O)c2cc(C)nc3c2c(C)nn3-c2cccc(F)c2)c1 | – | inactive: -18.8%
10 | COc1ccc(C)cc1NC(=O)CN1C(=O)c2cccc3cccc1c23 | – | inactive: -2.24%
11 | Cn1c(NC(=O)c2cccc(Cn3cc(Cl)cn3)c2)nc2ccccc21 | inconclusive: 2.59 µM [cytotoxic, full curve, poor fit] | –
12 | Cc1ccc(-n2cc(CNCCN3CCOC3=O)c(-c3ccc(F)cc3)n2)cc1 | inconclusive: 29.1 µM [cytotoxic, single point] | –
13 | COC(=O)C1=C(C)N(CCCC(=O)O)C(=O)NC1c1ccc([N+](=O)[O-])cc1 (configuration not stated) | inconclusive: 29.1 µM [rising, single point] | –
14 | CSc1ccccc1NC(=S)Nc1ccc(S(N)(=O)=O)cc1 | – | inactive: 8.72%
15 | Cc1ccc2nc(SCC(=O)Nc3cccc(F)c3)nc(=O)n2c1 | active: 9.2 µM | –
16 | CC(C)C[C@H](NC(=O)N1CC(=O)Nc2ccccc21)C(=O)N[C@H](Cc1c[nH]c2ccccc12)C(=O)O | inconclusive: 0.58 µM [cytotoxic, full curve, poor fit] | –
17 | COc1ccccc1N(C)S(=O)(=O)c1ccc(C(=O)Nc2ccc(C)cc2C)cc1 | inconclusive: 3.66 µM [cytotoxic, partial curve] | –
18 | COc1ccccc1NC(=O)C1=C(C)Nc2nc(SCc3ccccc3F)nn2C1c1cccs1 (configuration not stated) | – | inactive: 1.53%
19 | CCOc1ccc(N2C(=O)/C(=C/c3cc(OC)c(OC)c(OC)c3)N(CC(=O)OC)C2=S)cc1 | inconclusive: 18.4 µM [cytotoxic, single point] | –
20 | COc1ccc(Cn2c(-c3ccccc3C)nc3c(c(=O)c4ccccc4n3C)c2=O)cc1 | inconclusive: 2.31 µM [cytotoxic, full curve] | –
21 | COc1cc(CC(=O)N2CCc3ccccc32)cc(OC)c1OC | inconclusive: 29.1 µM [cytotoxic, single point] | –
22 | CCC(CC)C(=O)Nc1nc2c(s1)CC(C)CC2 (configuration not stated) | inconclusive: 23.1 µM [cytotoxic, single point] | –
23 | O=c1c2cc(F)ccc2[nH]c(=S)n1CCCN1CCOCC1 | inconclusive: 20.6 µM [cytotoxic, single point] | –

Row | Compound | Potency | activity change, negative = cytotoxicity
24 | COc1ccc(/C=C(\C#N)C(=O)Nc2cccc3ncccc23)cc1OC | inconclusive: 23.1 µM [cytotoxic, partial curve, poor fit] | –
25 | Cc1ccc(C(=O)Nc2cccc(C(F)(F)F)c2)cc1Nc1cncnc1 | inconclusive: 29.1 µM [rising, single point] | –
26 | COc1ccc(CCNC(=O)C(=O)NCC2CCCN2S(=O)(=O)c2cc(C)ccc2C)cc1 (configuration not stated) | inconclusive: 16.4 µM [cytotoxic, partial curve, poor fit] | –
27 | COc1ccc(CCNC(=O)C2CCCN(S(=O)(=O)c3ccc(F)cc3)C2)cc1 (configuration not stated) | inconclusive: 8.2 µM [cytotoxic, partial curve] | –
28 | Cc1ccc(/C=C(\NC(=O)c2ccc(C)cc2)C(=O)NCCCn2ccnc2)cc1 | inconclusive: 0.0326 µM [rising, full curve] | –
29 | CCC(=O)c1ccc(N2CCN(C(=O)c3ccc(F)cc3)CC2)c(F)c1 | inconclusive: 29.1 µM [cytotoxic, single point] | –
30 | COc1ccccc1CNC(=O)COc1ccc(C)nc1[N+](=O)[O-] | inconclusive: 13 µM [cytotoxic, single point] | –
31 | CCOC(=O)N1CCN(S(=O)(=O)c2ccc(OC)c(C(=O)N3CCCCC3)c2)CC1 | inconclusive: 16.4 µM [cytotoxic, partial curve, poor fit] | –
32 | N#C/C(=C/c1cn(-c2ccccc2)nc1-c1cccc(OCc2ccc(F)cc2)c1)C(=O)NCCCn1ccnc1 | active: 16.4 µM | –
33 | CC1Cc2ccccc2N1Cc1cc(=O)c(OCC(=O)NCCc2ccccc2)co1 (configuration not stated) | inconclusive: 25.9 µM [cytotoxic, single point] | –
34 | CC(=O)N(C)c1cc([N+](=O)[O-])ccc1OCc1ccccc1 | active: 20.6 µM | –
35 | O=C(COc1ccc(/C=N/NC(=O)c2ccccc2O)cc1)Nc1ccccc1 | inconclusive: 7.31 µM [rising, partial curve] | –
36 | COc1cccc(C2=CC(c3cccs3)n3nnnc3N2)c1 (configuration not stated) | inconclusive: 3.66 µM [cytotoxic, full curve] | –
37 | O=C(Nc1ccc(F)cc1)C(c1ccccc1)N1CCN(S(=O)(=O)c2ccccc2)CC1 (configuration not stated) | inconclusive: 18.4 µM [cytotoxic, partial curve, poor fit] | –
38 | CCCNC(=O)C1(C)CCCN(C(=O)c2ccc(OC(F)F)cc2)C1 (configuration not stated) | – | inactive: 12.8%
39 | c1cncc(CSc2nnc3ccc(-c4ccco4)nn23)c1 | inconclusive: 32.6 µM [rising, single point] | –
40 | Cc1cccc(C(=O)N2CCCC(N3CCN(c4cccc(Cl)c4)CC3)C2)n1 (configuration not stated) | inconclusive: 10.3 µM [cytotoxic, partial curve] | –
41 | Nc1ccc2c(c1)C=C/C2=C\c1ccccc1 | inconclusive: 0.0046 µM [rising, full curve, poor fit] | –
42 | CC(=O)Nc1cnn(Cc2ccc(Br)cc2)c1 | inconclusive: 20.6 µM [rising, partial curve, poor fit] | –
43 | CCOc1ccc(CCN2C(=S)N([C@@H](CC(C)C)CN3CCCC3CN3C(=S)NC[C@@H]3Cc3ccc(O)cc3)C[C@@H]2CC(C)C)cc1 (some centres not stated) | inconclusive: 29.1 µM [cytotoxic, single point] | –
44 | CCn1ccc2c(OCC(=O)Nc3ccccc3C)cccc2c1=O | – | inactive: -19.5%
45 | O=C(Nc1ccc2c(c1)OCO2)N1CCN(c2ncc(C(F)(F)F)cc2Cl)CC1 | – | inactive: 0%
46 | O=C(Nc1cc(Cl)cc(Cl)c1)c1ccno1 | – | inactive: 0%

By substructure, the compounds so far with a thiophene ring, fused or not.
Row | Compound | Potency | activity change, negative = cytotoxicity
18 | COc1ccccc1NC(=O)C1=C(C)Nc2nc(SCc3ccccc3F)nn2C1c1cccs1 (configuration not stated) | – | inactive: 1.53%
36 | COc1cccc(C2=CC(c3cccs3)n3nnnc3N2)c1 (configuration not stated) | inconclusive: 3.66 µM [cytotoxic, full curve] | –

Remaining list, next part

Row | Compound | Potency | activity change, negative = cytotoxicity
47 | Cc1cccn2c(=O)c3cc(C(N)=S)c(=N)n(CCCOC(C)C)c3nc12 | – | inactive: -13%
48 | O=C(CC1Sc2ccccc2NC1=O)c1ccc(Br)cc1 (configuration not stated) | inconclusive: 32.6 µM [cytotoxic, partial curve, poor fit] | –
49 | c1ccc(COc2cccc(-c3cc4nc(NCCCn5ccnc5)ccn4n3)c2)cc1 | – | inactive: -0.281%
50 | Cc1nc2ccc(-c3nc4ccccc4o3)cc2[nH]1 | inconclusive: 16.4 µM [cytotoxic, single point] | –
51 | Cc1ccc(NC(=S)N2C3CCCC2CC(NC(=O)C2CC2)C3)cc1C (configuration not stated) | – | inconclusive: 3.64%
52 | CC(=O)Nc1ccc(C(=O)NNC(=O)C2C3CCCCC32)cc1 (configuration not stated) | inconclusive: 29.1 µM [rising, single point] | –
53 | CSc1ccc(-c2nc(CSCC(=O)N3CCOCC3)c(C)o2)cc1 | active: 5.17 µM | –
54 | CCCCc1c(-c2ccccc2)ncn1CCc1ccccc1OC | active: 10.3 µM | –
55 | Cc1ccc(-n2c(Cc3cccn3C)nnc2SCC(=O)N2CCc3ccccc32)cc1 | active: 6.51 µM | –
56 | COc1cc(-n2c(C)nc3cccnc32)c(Cl)cc1C(=O)O | inconclusive: 8.2 µM [rising, partial curve, poor fit] | –
57 | C=CCn1c(-c2c[nH]c3ccccc23)n[nH]c1=S | inconclusive: 20.6 µM [cytotoxic, single point] | –
58 | O=C1CC[C@@H]2CC3(C[C@@H]4CCN1[C@H]24)Nc1cc(Cl)ccc1NC3=NC1CCCCC1 (some centres not stated) | inconclusive: 10.3 µM [rising, partial curve, poor fit] | –
59 | Cc1ccc(S(=O)(=O)N/N=C/C(C)(C)CO)cc1 | inconclusive: 18.4 µM [rising, single point] | –
60 | O=c1c2ccccc2n(CC(O)CN2CCCCC2)c2ccccc12 (configuration not stated) | inconclusive: 20.6 µM [cytotoxic, single point] | –
61 | CC1=C(C(=O)OCC(C)C)C(c2ccc(F)cc2)NC(=O)N1 (configuration not stated) | – | inactive: 0%
62 | N#Cc1cccc(C(=O)C(=O)N2CCN(c3ccccc3)CC2)c1 | – | inactive: -5.55%
63 | CCn1nnnc1SCC(=O)N1c2ccccc2CCc2ccccc21 | inconclusive: 16.4 µM [cytotoxic, partial curve, poor fit] | –
64 | CCc1ccc(S(=O)(=O)NCc2cn3ccsc3n2)s1 | inconclusive: 18.4 µM [cytotoxic, single point] | –
65 | COc1cc(NC(=O)c2cc(C)nc3c2c(C)nn3-c2ccccc2Cl)cc(OC)c1 | inconclusive: 16.4 µM [cytotoxic, partial curve, poor fit] | –
66 | COc1cc(OC)cc(-c2nnc(SCC(=O)N(Cc3ccccc3)C(C)(C)C)o2)c1 | inconclusive: 23.1 µM [cytotoxic, single point] | –
67 | O=C(O)c1ccccc1-c1ccccc1C(=O)Nc1ccc(F)cc1 | inconclusive: 18.4 µM [rising, partial curve, poor fit] | –
